Measurements from article PMC7489219 (Molecular Brain, 2020).
Structures can show the parent of a compound that is named as a salt.

System: T1, primary mouse cortical neurons
T1 construct: primary cortical neurons, DIV 10
Experiment: cells
Parameters: Protection from NMDA-induced (30 uM, 10 min) neuronal death; Hoechst nuclear morphology by automated microscopy
Settings: Cortical neurone, 20 h, read-out: % inhibition, inhibition of NMDA-induced cell death (protection score), 30 min pre-treatment
Protocol: On DIV 10, compounds were applied to the cells reaching an end concentration of 10 μM. Cells were incubated for 30 min at 37 °C, 5% CO2 before adding NMDA (30 μM). Cells were incubated for another 10 min in the incubator, then washed twice with defined minimal medium containing 10 μM of the respective compound and incubated for an additional 20 h before readout. Untreated (no NMDA) and NMDA-only stimulated wells were treated with 0.1% DMSO. […] After 15 min of incubation at room temperature, cells were washed twice with phosphate buffered saline. […] Dead neurons were identified by amorphous or shrunken nuclei using CellProfiler and CellProfiler Analyst software. For all cell death analyses the experimental unit (N) is defined as an independent experiment using an independent neuronal preparation. For each independent experiment, data from 3 replicate wells (i.e., from 36 images), representing an average of 3000 cells was analyzed per condition. The survival rate S was calculated by dividing the number of living cells by the total number of cells. The survival rate was then used to calculate the protection score according to Scompound−Svehicle/Suntreated−Svehicle×100=%protection , where ‘compound’ refers to compound + NMDA treatment, ‘vehicle’ refers to vehicle + NMDA treatment, and ‘untreated’ refers to DMSO control. […]

SMILES: CN1CCC[C@@H]1CCO[C@](C)(c1ccccc1)c1ccc(Cl)cc1 [Clemastine fumarate]
- inhibition at 10 µM: 1.09%
